Values from PubChem BioAssay AID1259424 (University of Nebraska Medical Center, 2018)

Aim: 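Seek colon cancer survival genes behaving like KSR1, using a six-gene signature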 (primary screen)
Cell system: human HCT116 colon cancer cells
Reagent: siRNA pool against human genes, 50 nM
Measured: 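Six signature mRNAs by branched-DNA multiplex assay, scaled to two housekeeping genes and non-targeting median, log2; matched to mean KSR1 knockdown profile by Pearson correlation and euclidean distance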
Direction: mean correlation with KSR1 profile and KSR1 correlation: higher = expression change more like KSR1 knockdown; mean distance from KSR1 profile: higher = expression change less like KSR1 knockdown
Here is a random part of about 14,000 deposited reagents. 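Higher correlation or smaller distance means closer resemblance to KSR1 loss; control wells, including KSR1 knockdowns, recur on many plates.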 Reagent sequences are not shown. Not given: the time to read-out.

target	mean correlation with KSR1 profile	mean distance from KSR1 profile	KSR1 correlation, replicate 1	KSR1 correlation, replicate 2	KSR1 correlation, replicate 3
SULT2A1 (sulfotransferase family 2A member 1)	-0.562	2.06	-0.504	-0.478	0.172
ANKRD2 (ankyrin repeat domain 2)	-0.469	4.08	-0.399	-0.447	-0.485
RGS18 (regulator of G protein signaling 18)	-0.349	1.64	-0.431	-0.578	-0.48
SLC7A4	0.336	1.12	-0.0405	0.328	0.772
C2CD3 (C2 domain containing 3 centriole elongation regulator)	0.582	1.56	0.506	0.563	0.65
SMOC2 (SPARC related modular calcium binding 2)	-0.157	1.82	-0.385	-0.0555	-0.12
RCC1L (RCC1 like)	0.59	1.9	0.395	0.588	0.542
SEPTIN9 (septin 9)	0.463	1.81	0.438	0.331	0.00704
CACYBP (calcyclin binding protein)	-0.237	2.02	-0.313	-0.569	-0.4
GNLY (granulysin)	-0.07	2.74	-0.205	-0.225	0.00338
FBXO4 (F-box protein 4)	-0.0296	1.36	-0.0715	0.0129	-0.189
FSTL1 (follistatin like 1)	0.16	1.73	0.235	0.236	0.0663
CD99 (CD99 molecule (Xg blood group))	-0.297	1.44	-0.202	-0.25	-0.356
GH2 (growth hormone 2)	-0.411	2.45	-0.474	-0.358	-0.417
NAPA (NSF attachment protein alpha)	-0.226	7.44	-0.301	-0.143	-0.311
H2AB3 (H2A.B variant histone 3)	0.723	1.38	0.553	0.756	0.671
TNNC2 (troponin C2, fast skeletal type)	0.725	1.45	0.814	0.789	0.407
HMG20B (high mobility group 20B)	0.472	1.59	0.391	-0.0587	0.688
ZWILCH (zwilch kinetochore protein)	-0.564	2.8	-0.582	-0.68	-0.371
SELENOO (selenoprotein O)	0.287	2.22	0.193	0.248	0.277
LY75 (lymphocyte antigen 75)	-0.086	2.96	-0.0543	-0.182	-0.0377
FBXO7 (F-box protein 7)	-0.103	2.04	-0.426	-0.0914	0.0734
EXOC6B (exocyst complex component 6B)	-0.473	2.58	-0.447	-0.27	-0.503
CENPC (centromere protein C)	-0.404	3	-0.243	-0.294	-0.478
MAPK9 (mitogen-activated protein kinase 9)	0.297	1.33	0.018	0.462	0.134
TMEM14B (transmembrane protein 14B)	0.213	2.18	0.268	-0.0113	0.179
KIAA0513	-0.13	2.16	-0.0542	0.185	-0.201
ASPN (asporin)	0.0251	1.69	-0.198	0.00529	0.0122
CDCP1 (CUB domain containing protein 1)	-0.667	2.58	-0.743	-0.67	-0.693
ITGA10 (integrin subunit alpha 10)	0.722	1.19	0.776	0.67	0.703
DLX3 (distal-less homeobox 3)	0.804	0.725	0.853	0.887	0.556
TNFAIP6 (TNF alpha induced protein 6)	0.489	1.87	0.496	0.69	0.488
EDIL3 (EGF like and discoidin domains 3)	-0.37	2.36	-0.309	-0.39	-0.354
CAMK2D (calcium/calmodulin dependent protein kinase II delta)	0.61	1.2	0.629	0.553	-0.322
ETAA1 (ETAA1 activator of ATR kinase)	-0.175	2.17	-0.159	0.023	-0.0238
EMC4 (ER membrane protein complex subunit 4)	0.309	2.22	0.363	0.249	0.272
CTSK (cathepsin K)	-0.273	2.8	-0.338	-0.35	-0.38
MMAB (metabolism of cobalamin associated B)	-0.589	2.71	-0.885	-0.721	-0.256
TMEM117 (transmembrane protein 117)	0.00221	2.7	-0.0602	-0.137	0.223
CCNG1 (cyclin G1)	-0.171	1.51	-0.303	-0.129	-0.228
SLAMF8 (SLAM family member 8)	-0.418	1.68	-0.235	-0.638	-0.678
ZNF423 (zinc finger protein 423)	-0.411	2.49	-0.583	-0.552	-0.385
SPTBN2 (spectrin beta, non-erythrocytic 2)	-0.377	1.59	-0.12	-0.4	-0.441
SCNN1B (sodium channel epithelial 1 subunit beta)	0.148	1.75	0.427	0.113	-0.0445
MELK (maternal embryonic leucine zipper kinase)	0.0598	2.48	0.442	0.223	-0.494
CCZ1 (CCZ1 vacuolar protein trafficking and biogenesis associated)	-0.503	2.65	-0.385	-0.676	-0.365
DHX30 (DExH-box helicase 30)	-0.815	2.11	-0.563	-0.914	-0.723
EMP2 (epithelial membrane protein 2)	-0.68	2.23	-0.743	-0.784	-0.688
NOTCH3 (notch receptor 3)	-0.665	1.48	-0.0774	0.0104	-0.834
KLHL4 (kelch like family member 4)	0.223	1.37	0.312	-0.0517	0.0661
ATP2C1 (ATPase secretory pathway Ca2+ transporting 1)	-0.207	2.4	-0.174	-0.399	0.0464
IFNK (interferon kappa)	-0.583	4.51	-0.468	-0.512	-0.655
CD160 (CD160 molecule)	0.178	1.93	0.146	-0.0444	0.297
EIF4EBP2	0.85	1.11	0.91	0.626	0.821
NDUFV1 (NADH:ubiquinone oxidoreductase core subunit V1)	0.317	1.11	0.498	0.406	0.19
RUNDC3A (RUN domain containing 3A)	-0.327	1.95	-0.494	-0.2	-0.259
IL7 (interleukin 7)	-0.1	1.15	0.0275	-0.339	0.229
USF1 (upstream transcription factor 1)	0.353	2.34	0.362	0.317	0.613
UBB (ubiquitin B)	-0.00299	5.55	0.126	-0.232	0.0434
FCGR3A (Fc gamma receptor IIIa)	0.236	2.79	0.352	0.119	0.0771
ADAM23 (ADAM metallopeptidase domain 23)	0.189	0.997	0.553	0.505	-0.548
CA5A (carbonic anhydrase 5A)	-0.0674	2.47	-0.0403	-0.022	-0.213
CES2 (carboxylesterase 2)	0.00902	1.68	0.126	-0.00733	-0.0638
